Data taken from article doi:10.1101/2025.05.27.656300.
These are yes or no findings as the source states them, for the method shown. Binding seen in cells or lysates may run through a third protein. Some results given as binding are weak or reduced against the parent protein; the word gives no strength.

Chains of the proteins cited; added tags and fusions are not shown. Residues count along the entry.
UniProt Q9BXM7, residues 78-581: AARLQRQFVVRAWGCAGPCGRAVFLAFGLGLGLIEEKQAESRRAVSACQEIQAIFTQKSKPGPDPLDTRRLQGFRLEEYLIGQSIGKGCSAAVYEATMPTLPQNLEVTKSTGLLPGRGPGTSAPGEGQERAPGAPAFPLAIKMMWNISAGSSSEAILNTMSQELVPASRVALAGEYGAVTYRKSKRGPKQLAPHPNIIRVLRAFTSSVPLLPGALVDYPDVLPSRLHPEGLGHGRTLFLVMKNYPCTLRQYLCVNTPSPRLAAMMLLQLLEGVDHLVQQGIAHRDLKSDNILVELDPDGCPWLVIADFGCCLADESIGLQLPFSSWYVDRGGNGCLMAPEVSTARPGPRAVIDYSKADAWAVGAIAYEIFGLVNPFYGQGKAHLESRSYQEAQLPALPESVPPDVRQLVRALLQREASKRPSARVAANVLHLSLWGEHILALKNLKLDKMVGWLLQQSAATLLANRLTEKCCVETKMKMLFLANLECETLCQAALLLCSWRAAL
UniProt Q969V5: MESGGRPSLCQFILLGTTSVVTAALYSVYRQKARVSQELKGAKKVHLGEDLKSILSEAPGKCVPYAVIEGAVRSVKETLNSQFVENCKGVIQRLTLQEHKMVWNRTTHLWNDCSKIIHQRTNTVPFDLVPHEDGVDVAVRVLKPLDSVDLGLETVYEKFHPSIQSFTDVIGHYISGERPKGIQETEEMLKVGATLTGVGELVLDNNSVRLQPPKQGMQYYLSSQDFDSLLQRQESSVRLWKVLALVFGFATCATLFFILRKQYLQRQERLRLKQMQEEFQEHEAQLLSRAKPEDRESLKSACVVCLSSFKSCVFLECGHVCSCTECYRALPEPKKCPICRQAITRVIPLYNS

Target: PINK1-GFP (PTEN-induced kinase 1 with a C-terminal GFP tag) (human) (UniProt Q9BXM7)
Assay: co-IP

binding: binds
Substance: mitochondrial-anchored protein ligase (MAPL/MUL1) (from UniProt Q969V5 1-352)
